Measured data: PubChem BioAssay AID1259254 (NCATS, 2017)

- Aim: 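Finding genes that stop cells copying their DNA twice in one cycle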 (primary screen)
- System: human HCT116 colorectal cancer cells
- Reagent: single siRNA against human genes
- Duration: 3 days
- Detection: 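Nuclei stained with Hoechst and imaged; cell-cycle phase assigned by DNA content; G2 share scaled per plate, non-targeting siRNA 0%, GMNN siRNA 100%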
- Scale: G2 robust z-score and G2 cells, % of GMNN control: higher = more G2 cells, more excess DNA replication
- Active means: 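An siRNA counts as active if its G2 robust z-score lies at least 5 MADs above the screen median; here such calls match roughly 38% of GMNN control or more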
The deposit covers about 59,000 reagents; below is a random part of them. In the full data, about 1,550 (2.6%) got an active call. 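G2 share is only a proxy for re-replication; each gene was hit by three separate siRNAs, and active genes were retested.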 The numbers tell different reagents against one gene apart. Further read-outs or replicates are left out here. Not stated in the record: the amount of reagent.

POPDC3 #1: G2 robust z-score = -0.178; G2 cells, % of GMNN control = 1.72; outcome = inactive
POPDC3 #2: G2 robust z-score = 0.3; G2 cells, % of GMNN control = 5.08; outcome = inactive
POPDC3 #3: G2 robust z-score = -0.166; G2 cells, % of GMNN control = 1.8; outcome = inactive
KIF2B #1: G2 robust z-score = -1.24; G2 cells, % of GMNN control = -5.78; outcome = inactive
KIF2B #2: G2 robust z-score = 2.88; G2 cells, % of GMNN control = 23.3; outcome = inactive
KIF2B #3: G2 robust z-score = -1.22; G2 cells, % of GMNN control = -5.61; outcome = inactive
CCL21 #1: G2 robust z-score = -0.666; G2 cells, % of GMNN control = -1.72; outcome = inactive
CCL21 #2: G2 robust z-score = 5.11; G2 cells, % of GMNN control = 38.9; outcome = active
CCL21 #3: G2 robust z-score = -0.295; G2 cells, % of GMNN control = 0.892; outcome = inactive
IFT56 #1: G2 robust z-score = 0.474; G2 cells, % of GMNN control = 6.3; outcome = inactive
IFT56 #2: G2 robust z-score = -0.236; G2 cells, % of GMNN control = 1.31; outcome = inactive
IFT56 #3: G2 robust z-score = -0.84; G2 cells, % of GMNN control = -2.94; outcome = inactive

Limited to “G2 cells, % of GMNN control” (5 entries from above):
KIF2B #1: -5.78
KIF2B #2: 23.3
KIF2B #3: -5.61
CCL21 #1: -1.72
CCL21 #2: 38.9

More entries:
TBL1X #1: G2 robust z-score = -0.657; G2 cells, % of GMNN control = -1.66; outcome = inactive
TBL1X #2: G2 robust z-score = 0.578; G2 cells, % of GMNN control = 7.03; outcome = inactive
TBL1X #3: G2 robust z-score = 1.44; G2 cells, % of GMNN control = 13.1; outcome = inactive
CASK #1: G2 robust z-score = 0.792; G2 cells, % of GMNN control = 8.54; outcome = inactive
CASK #2: G2 robust z-score = -0.326; G2 cells, % of GMNN control = 0.672; outcome = inactive
CASK #3: G2 robust z-score = 0.425; G2 cells, % of GMNN control = 5.96; outcome = inactive
CTNNBIP1 #1: G2 robust z-score = -0.316; G2 cells, % of GMNN control = 0.741; outcome = inactive
CTNNBIP1 #2: G2 robust z-score = -0.0329; G2 cells, % of GMNN control = 2.74; outcome = inactive
CTNNBIP1 #3: G2 robust z-score = 0.0793; G2 cells, % of GMNN control = 3.53; outcome = inactive
SLC16A13 #1: G2 robust z-score = 2.32; G2 cells, % of GMNN control = 19.3; outcome = inactive
SLC16A13 #2: G2 robust z-score = -1.08; G2 cells, % of GMNN control = -4.61; outcome = inactive
SLC16A13 #3: G2 robust z-score = 1.26; G2 cells, % of GMNN control = 11.8; outcome = inactive
CDK14 #1: G2 robust z-score = 7.35; G2 cells, % of GMNN control = 54.7; outcome = active
CDK14 #2: G2 robust z-score = 1.29; G2 cells, % of GMNN control = 12.1; outcome = inactive
CDK14 #3: G2 robust z-score = -0.294; G2 cells, % of GMNN control = 0.9; outcome = inactive
PARP4 #1: G2 robust z-score = 0.355; G2 cells, % of GMNN control = 5.47; outcome = inactive
PARP4 #2: G2 robust z-score = 0.107; G2 cells, % of GMNN control = 3.72; outcome = inactive
PARP4 #3: G2 robust z-score = 1.17; G2 cells, % of GMNN control = 11.2; outcome = inactive
